This note sets out measurements from patent publication US20080171849 (published 2008).

The data set is described as follows: general procedure: Fmoc solid-phase peptide synthesis; 2-chlorotrityl polystyrene. To be noted: whole synthesis.

Regarding Ac-Nle-cyclo(Asp-His-D-Phe-Arg-Trp-Lys), the crude yield entry was “˜60%”.
